Results as given in patent publication US20170014477A1, “FREE RAPTOR REDUCES AGING- AND OBESITY-INDUCED FATTY LIVER” (The Trustees of Columbia University in the City of New York, priority 2015, published 2017).
No constants are given. Whether binding was seen depends on the method and setting. A result given as binding can be weak or reduced; the word gives no strength. For some assays here: Binding seen in cells or lysates may run through a third protein.

Experiments:
Akt (mouse) = test: anti-Akt IP from liver of young or adult Ad-GFP and Ad-Raptor mice, Western blot (FIG. 13I)
[1] = molecular target: KCTD17 (potassium channel tetramerization domain containing 17); test: co-immunoprecipitation, Western blot (FIG. 49B)

- binding (Akt (mouse)): binds
- binding [1]: binds
B1: PH domain leucine-rich repeat protein phosphatase 2 (PHLPP2), endogenous (enzyme, mouse, UniProt Q8BXA7 1-1320, looked up)
chain: MKHNGSRTCLNRRSRFGSRERDWLREDVKRGCVYLYGADTTTATTTTSSSSSSSSSSDLHLVLCTVETPASEICAGEGRESLYLQLHGDLVRRLEPSERPLQIVYDYLSRLGFEDPVRIQEEATNPDLSCMIRFYGEKPCQMDHLDRILLSGIYNVRKGKTQLHKWAERLVVLCGTCLIVSSVKDCQTGKMHILPLVGGKIEEVKRRQHSLAFSSAGAQAQTYHVSFETLAEYQRWQRQASKVVSQRMSTVDLSCYSLEEVPEHLFYSQDITYLNLRHNFMQLERPGGLDTLHKFSQLKGLNLSHNKLGLFPVLLCEISTLTELSLSCNGFHDLPSQIGKLLNLQTLSLDGNGLTALPDELGNLRQLTSLGISFNDFRHIPEVLEKLTMLDKVAMAGNRLEVLNLGALTRMSQVKHVDLRMNHLKTVITENMEGNKHITHMDLRDNQLTDLDLSSLCSLEQLHCERNQLRELTLSGFSLRTLYASWNRLTAVNVYPVPSLLTSLELSQNLLECVPDWACEAKKLEILDISHNLLTEVPMRILSSLSLRKLMVGHNHIHVLPALVEHIPLEVLDIQHNTLSRLPDTLFSKALNLRYLNASANSLESLPSACAGEESLSVLQLLYLTSNLLTDQCIPVLVGHPHLRVLHLANNQLQTFPASKLNKLEQLEELNLSGNKLTAIPTTIANCKRLHTLVAHANNISIFPEILQLPQIQFVDLSCNDLTEILIPEALPATLQDLDLTGNTNLVLEHKTLDMFSHITALKIDQKPLPATDSAVTSTFWSHGLAEMAGQRNKLCVSALAMDNFAEGVGAVYGMFDGDRNEELPRLLQCTMADVLLEEVQHSTNDTVFMTNTFLVSHRKLGMAGQKLGSSALLCYIRPDTADPTSSFSLTVANVGMCQAVLCRGGKPVPLSKVFSLEHDPEEAQRVKDQKAIITEDNKVNGVTCCTRLLGCTYLYPWILPKPHIASTPLTIQDELLILGNKALWEHLSYLEAVNAVRHVQDPLAAAKKLCTLAQSYGCQDNVGAMVVYLNIGEEGCTCEMNGLTLPGPVGFASTAALKDTPKPTTPSSSSGIASEFSSEMSTSEVSSEVGSTASDEHNTVGLEASLLPRPERRCSLHPASSAGVFQRQPSCATFSSNQSDNGLDSDDDQPVEGVITNGSRVEVEVDIHCCRGREPESSPPLPKNSSNACSEERARGAGFGIRRQNSVNSGILLPANRDKMELQKSPSTSCLYGKKLSNGSIVPLEDSLNLIEVATEAPKRKTGYFAAPTQLEPEDQFVVPRDLEEEVKEQMKQHQEGRPEPEPRGEERTEPLEEFDTAL
